According to PubChem BioAssay AID1508600 (Functional Genomics Laboratory (NCATS/FGL), 2020):
The whole screen tested about 53,000 sequences, of which about 3,700 (7%) were called active.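 Rule for the calls: active = gene knockdowns whose robust z-score for IL-1 alpha signal is at least 2 or at most -2, so actives lie on both sides; inactive = the rest.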 The list shows a part of the results.

Assay: Components of the Cytosolic LPS Sensing Pathway: Gene Identification via Genome-wide siRNA Screen;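 note: robust z of the log signal after scaling to non-targeting control siRNA wells of the plate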
Conditions: RAW264.7 macrophages, IL-1a HTRF, actives lie on both sides, screened at 100 nM (by protocol), cells primed 5 h with Pam3CSK4 first
How it was run: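 RAW264.7; siRNA 100 nM final, RNAiMAX, 48h 37 degrees C; Pam3CSK4 5 h; LipidA + TransIT-TKO 24 h; IL-1a HTRF; CellTiter-Glo viability; robust z vs negative-control median.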

Sequence | z-score
GGCAGAAGUAGAUUUACUCTT against Otulinl | inactive: 0.587
GGUUGAUCCAAAAGAUUACTT against Rp2 | inactive: 0.557
GGAGCAAUUCUACCGCUACTT against Fbxw5 | active: -2.14
GGCCAUUGCAUUCAUUGAUTT against Dusp9 | inactive: -0.951
ACUCCUAUGAGCUAGCUGUTT against Krt42 | inactive: 0.919
ACAAGUUUGAUACCGAAUUTT against Chic1 | inactive: 1.03
GCAAAGGUUUAAGUUAUGATT against L2hgdh | inactive: 0.242
GGAAGAAGUGAAGAUCAUUTT against Acoxl | inactive: -0.629
GGAAACUCCCUGAACCGGATT against Zcrb1 | active: 2.26
GCGAAUGUGUGUAUUCUGGTT against BC055324 | inactive: -0.791
GGCGAAUUAUUGAAAACGUTT against Actr8 | inactive: 0.916
GGAAGAAGCAAAGAGGUCCTT against Foxm1 | inactive: 0.177
CGUACAAAGGUAGUAUACCTT against Pi4k2a | inactive: 1.1
CGGCUCGUUGAAGAACAAATT against Afap1 | inactive: -1.32
GGAUGUGAAUGAGUGUGAGTT against Fbln7 | inactive: 0.368
GGACCUAAACAACGUGUUGTT against Klf2 | active: 2.74
GGUUCCUUAAUCACUUUGCTT against Ndufa9 | inactive: -0.139
GCAAUGAAUUCUAUUAUGGTT against Plrg1 | inactive: -1.51
GGAUUAGUCAUCAUCUUCATT against Gabrb2 | inactive: 0.134
GUCAUGCUUACUGUUCAGATT against Vmn1r38 | inactive: -0.722
CCAUUCAAGUAAAUGAACCTT against Efhc2 | inactive: 0.149
GCAUCCCAAGCUUAAAGCGTT against Malt1 | inactive: 0.635

2 entries from above, field by field.
GCAAAGGUUUAAGUUAUGATT against L2hgdh
  z-score: inactive: 0.242
GGAAGAAGUGAAGAUCAUUTT against Acoxl
  z-score: inactive: -0.629

Further records

Sequence | z-score
CCCAGUGUGAACAGAGGCATT against Xlr3a | inactive: -1.12
GCAUAAACAGUGAAGCCACTT against Suv39h2 | inactive: -0.994
GGAGACAGAAAGAGAAAAGTT against Pou3f2 | inactive: -0.578
GGUGAACCAAAGACACUUCTT against Pcdhgc4 | inactive: -0.0248
GGGUAGGAAACAAACACAGTT against Cox11 | inactive: -0.234
GGACCCAGAUGUGACUGAGTT against Svil | inactive: 0.242
GGAAUUAUCUGAGCCUGUGTT against Fam193b | inactive: -0.0725
GACUGUGUUUAUUCCUCUGTT against Olfr1450 | inactive: 0.843
AGAUGAUGAAAGCUUCUGCTT against Cyp2c40 | inactive: -0.0568
GGAGGUAGUAGAUUCUUCCTT against Dnase1l1 | inactive: -1.39
GCUAACCAAAGUUUUGAGATT against Rbm11 | inactive: 1.37
GGGAGAAAAUUGGCUUAGATT against Dclre1b | inactive: 0.424
CCGCUCUGUUUCAAUCCUGTT against Atp8b5 | inactive: -0.918
GCUGGAGAUUCGUUACCGCTT against Cxxc1 | inactive: 1.22
GGAAAUCUUUCUGACAGUCTT against Atoh8 | inactive: 0.69
GCGAAAGCAGCUGUCGGAATT against Nkx3-1 | inactive: 0.324
GGAUCUCAGAAGCUUAGUUTT against Atxn7 | inactive: 0.127
GGACUGCUUUUUUUACUCATT against Mta2 | active: -2.07
GGUUGUUUCACCAAUAGUUTT against Idi1 | inactive: -0.454
GGUGCUCCGAACAAGUUGATT against Cmc1 | inactive: 0.493
GGCCACCAAGACCAAUGAUTT against Akap8 | inactive: 0.154
GCCAAAUCAGGGACUGCUATT against Prkaa1 | inactive: 1.21

Sequence | z-score
GGACAGUGCCACUUAAACCTT against Tbxa2r | inactive: -1
GGCACGUCUCUAUUCAAGATT against Rab21 | inactive: 0.747
GCAUCAGAUAGAGAUUGCUTT against Acnat2 | inactive: -0.512
GCUGUAUUUCUGUUAACACTT against Pacs2 | inactive: -0.411
GGCCAACAGGUGCAAGAAATT against Rspo4 | inactive: -1.32
GGAGAAGUUGGCAAAGAUGTT against Col9a3 | inactive: 0.322
GGAGAAAUGGUACAAGGUCTT against Nxf2 | inactive: 0.637
GGAGAGCACGAUAACAAGATT against Fabp5 | inactive: 1.19
GCUCUCCUUGAUCGAGAGATT against Spryd7 | active: -2.65
GCUGGCUUUAAAAAUAUCUTT against Nt5dc3 | inactive: 0.174
GGGAGGUAGUCGUAGAAAUTT against Trp53i11 | inactive: -0.607
GGUUACCUAUACAUUUCAGTT against Erbb2 | inactive: 0.579
GGGCAUGGAGGAGUACAUUTT against Nat8f1 | inactive: 0.27
GGAGGAAGAAGAGAAAGCCTT against Ppm1f | inactive: -1.05
GGCUUUAAAAGCCUAUAUGTT against 4933400A11Rik | inactive: 1.35
GGCUUGUUUAUGUGUAAUUTT against Bccip | inactive: 1.18
GGAUCCUGACAACCCUGUGTT against Sppl2b | inactive: -1.32
GCAAGAGUUACUUCUUAUUTT against Hdac9 | inactive: 0.298
CCGCUUUUCCUGCCUCUGUTT against Dlk2 | inactive: 0.418
GGAUAAAAACUACAAAGAGTT against Cmpk2 | inactive: -0.563
GCCCUGCACCAGAAAAACATT against Stk40 | inactive: -0.662
GGAUGUCUACUUUGUAUCUTT against Tph1 | inactive: -0.697

An excerpt of these results, as labelled records.
GGCACGUCUCUAUUCAAGATT against Rab21
  z-score: inactive: 0.747
GCAUCAGAUAGAGAUUGCUTT against Acnat2
  z-score: inactive: -0.512
GCUGGCUUUAAAAAUAUCUTT against Nt5dc3
  z-score: inactive: 0.174
GGGAGGUAGUCGUAGAAAUTT against Trp53i11
  z-score: inactive: -0.607

Later entries:

Sequence | z-score
GGACAUAGAUAAAUGCAGATT against Med10 | inactive: -0.984
GGCAAUCAUUGGACUAUACTT against Nckap1 | active: -2.81
GCCUGAUACGUUUUUUAAGTT against Ccr1l1 | inactive: -1.29
CCUAGUCUAGCUGACUUGCTT against Eppin | inactive: 1.41
GAUGUCUUCUAUGGAGGCATT against Olfr60 | inactive: 0.0532
GGACCUUUUGUGAACUUACTT against E2f3 | active: 4.53
GGACAAUCACUCCAGGAGUTT against Gzmg | inactive: 1.83
GAGAUUGCCAAAGACAAAATT against Vmn1r212 | inactive: -0.743
GGCUGAAAAAUGCUUGAUUTT against Dhdds | inactive: -1.14
GGAAGCUUUCCAAUGGCUGTT against Cyp2c29 | inactive: -0.444
GGCCAAUAAAGGAAAGAAATT against 4930578I06Rik | inactive: -0.38
GGCCAUUUUAUUGUAUGUUTT against Pdik1l | inactive: -0.415
GGACAGAGAACAGUUGAUGTT against Mrps9 | inactive: 0.807
GCUAGAGUAGCUUUGGGCATT against Glra3 | inactive: 1.37
GCUACAUCUCAGAAAUCGGTT against Taf8 | inactive: -1.28
GGAAGCUACAUGCUGUUCCTT against Anln | inactive: 0.737
GCUUUAUAGGAACCUAAACTT against Sh3tc2 | inactive: 1.37
GGAUCAACUUACUUGUGGCTT against Tmem168 | inactive: -0.84
CCUAACUAUUGUAGUAGCATT against Thrsp | inactive: 0.409
GCCACCAAGUACUUUGGUUTT against Vmn1r76 | inactive: 1.34
GGAGAAAAACAAAGAACACTT against Aif1 | inactive: -0.342
GGAGCAAUUAAAGGUGUCATT against Fpr-rs3 | inactive: -0.159

Sequence | z-score
GGUUUGAAUUAGGUUAGAGTT against Kank1 | inactive: -1.7
GCUUAACACAAAAUAAGGCTT against Tph2 | inactive: 0.737
GGGACUAUAAGGAACCAGGTT against Fmo3 | inactive: -0.35
GGUCAUAGUUUCUGAAUGATT against Cdx4 | inactive: -0.315
GGCAGAGCCAGGAUGUCUUTT against Msmb | inactive: -1.2
GGAGAAUUAACUGUUCCUCTT against Kcnmb2 | active: 2.23
GGCCCUGUGUCAAAUCAGUTT against Zfand6 | active: 2.1
AGGUCACCAAACGUGAUGATT against Rc3h1 | inactive: 0.0137
GGAGCGCGUGAAACUGUCUTT against Fbxw4 | inactive: -0.752
GGUGCACCUGAUGUACAAGTT against Trim25 | inactive: 0.939
CCACCUGUGCUACCACUUATT against Rexo4 | active: -2.34
GCCUUCCAUACUUCACUACTT against Rtp2 | inactive: -0.49
GGUUGAUGCCAUGAAGUCCTT against Acyp2 | inactive: -1.22
GGACAAAGAUGAAAUCCGATT against Btbd3 | inactive: -0.033
GGGACCUAUGCUGUUUCCUTT against Ccdc85a | inactive: 0.248
GGAUGUUCCAUAUUAUACCTT against Adamdec1 | inactive: 1.06
GCUUACAUCCAAGCCGUCUTT against Prss41 | inactive: 0.283
GGAAGAGCAGCAGAUGAAATT against Prodh | inactive: -1.62
GGAAAUGAUCGAAAUGGCCTT against Pou2f3 | inactive: -0.89
